The target of assay [1] is platelet derived growth factor-BB (PDGF-BB) (human) (UniProt P01127). Briefly: plate assay: biotinylated peptide on streptavidin, PDGF-BB dilution series, anti-PDGF-BB antibody detection; compared with SEQ ID NO: 25.
Assay [2] shares this target. Put plainly: plate assay: biotinylated peptide on streptavidin, PDGF-BB dilution series, anti-PDGF-BB antibody detection.

Chains of the proteins cited; added tags and fusions are not shown. Residues count along the entry.
UniProt P01127, residues 82-190: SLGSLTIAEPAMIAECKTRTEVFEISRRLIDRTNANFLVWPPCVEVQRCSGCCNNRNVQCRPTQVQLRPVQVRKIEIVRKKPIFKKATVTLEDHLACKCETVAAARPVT

Results are given in words; binding and its absence hold for the method and conditions named. Some entries that bind do so weakly or less than the wild type.

For DEDEDESPWVTWYYSASSPGSSGK (biotin on the C-terminal Lys of the added GSSGK(biotin) sequence) [synthetic biotinylated PDGF binding peptide SEQ ID NO: 32], in assay [1], the binding result was “binds”.

DEDESPWVTWYYSASSPGSSGK (biotin on the C-terminal Lys of the added GSSGK(biotin) sequence) [synthetic biotinylated PDGF binding peptide SEQ ID NO: 31]: the binding result in assay [1] is recorded as “binds”.

As for DDDDSPWVTWYYSASSPGSSGK (biotin on the C-terminal Lys of the added GSSGK(biotin) sequence) [synthetic biotinylated PDGF binding peptide SEQ ID NO: 30], the binding entry in assay [1] is given as “binds”.

Turning to DDSPWVTWYYSASSPGSSGK (biotin on the C-terminal Lys of the added GSSGK(biotin) sequence) [synthetic biotinylated PDGF binding peptide SEQ ID NO: 29], the binding result in assay [1] was “binds”.

On to SPWVTWYYSASSPGSSGK (biotin on the C-terminal Lys of the added GSSGK(biotin) sequence) [synthetic biotinylated PDGF-binding peptide SEQ ID NO: 25], for which the binding result in assay [2] is on record as “binds”.

Source of the values: patent US20110117168A1, “METHODS AND COMPOSITIONS FOR SOFT TISSUE REPAIR” (AFFINERGY, INC., priority 2009, published 2011).
